# Assay results taken from patent US20250213647A1, “CHEMOKINE RECEPTORS AND ALPHA1 ADRENERGIC RECEPTORS/VASOPRESSIN RECEPTORS 1A HETEROMERS AS DRUG TARGETS FOR DISEASE” (UNIVERSITY OF SOUTH FLORIDA, priority 2022, published 2025).
# Sequences of proteins named here, by UniProt entry; tags and fusion partners are left off. A change or cut given only in a name is not applied to a line headed by its entry.
# UniProt P41597: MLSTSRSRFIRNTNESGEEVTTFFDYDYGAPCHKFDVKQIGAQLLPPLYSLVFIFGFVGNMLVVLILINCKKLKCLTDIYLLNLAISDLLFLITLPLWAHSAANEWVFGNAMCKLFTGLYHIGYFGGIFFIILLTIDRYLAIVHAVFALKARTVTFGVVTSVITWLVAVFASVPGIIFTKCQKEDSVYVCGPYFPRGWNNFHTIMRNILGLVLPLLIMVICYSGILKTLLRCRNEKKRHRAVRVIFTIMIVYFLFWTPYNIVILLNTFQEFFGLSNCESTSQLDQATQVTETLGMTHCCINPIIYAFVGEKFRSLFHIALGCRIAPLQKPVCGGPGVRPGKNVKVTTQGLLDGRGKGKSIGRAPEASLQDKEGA
# Some results were stated once for a whole list of compounds, not compound by compound.
# Columns and labels:
# CCR2 = CCR2 (Homo sapiens, UniProt P41597); experiment: Chemotaxis assay, THP-1 cells toward CCL2 (CCR2-mediated); assay type: cell-based; design: host or cells: THP-1; settings: highest concentration of 10 μM, FIG. 23E
# Method: (§1) Cell migration was measured employing the Neuroprobe (Gaithersburg, MD, USA) ChemoTx® Disposable Chemotaxis System. A 96-well Boyden-chamber (30 μL/well, 8 μm pores, 1×10^5 pores/cm^2 pore density) was selected for all chemotaxis experiments. Bottom wells of the Boyden-chamber were loaded with 30 μL of test substances at various concentrations. Top wells of the membrane were loaded with 25 μL of THP-1 cells, THP-1_ADRA1B^KO, wild type THP-1 cells after clonal expansion (=control for THP-1_ADRA1B^KO) or freshly isolated monocytes (200 cells/μL). THP-1 cells were suspended in depleted RPMI1640 (0.5% HyClone™ fetal bovine serum, Sigma); Freshly isolated monocytes were suspended in RPMI1640 (0.5% human platelet poor plasma, Sigma). After 3 hours, transmigrated cells were counted utilizing the Cytation 1 plate reader (BioTek) by direct imaging in high contrast bright field (4×) and post-imaging particle analyses with Gen5 (v3.05) Imaging & Microscopy Software (BioTek). The chemotactic index (CI) was calculated as the ratio of cells that transmigrated in the presence versus the absence of the test solutions.
# [1] = test system: AVPR1A heteromerization partners CCR2, CCR8 and CXCR4; settings: read-out: IC50, inhibition of chemotaxis mediated via CCR2, CCR8 and CXCR4; THP-1 cells; FIG. 13A, 13C
# CCR1 = experiment: Chemotaxis assay, THP-1 cells toward CCL23 (CCR1-mediated); assay type: cell-based, human; settings: dose-dependently enhanced; CCL23 10 nM; FIG. 13B, 13C
# Method: as §1
Compound,inhibition of CCL2-induced chemotaxis (CCR2),IC50 [1],"chemotaxis induced via CCR1, % of THP-1 cells not exposed to AVPR1A ligands (CCR1)"
Maraviroc,less than 30%,–,–
"NC(=O)CC[C@@H]1NC(=O)[C@H](Cc2ccccc2)NC(=O)[C@H](Cc2ccc(O)cc2)NC(=O)[C@@H](N)CSSC[C@@H](C(=O)N2CCC[C@H]2C(=O)N[C@@H](CCCN=C(N)N)C(=O)NCC(N)=O)NC(=O)[C@H](CC(N)=O)NC1=O [AVP, arginine vasopressin]",–,0.037 to 0.218 nM,250-600%
